LiHisRS: 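Enzyme assay of histidyl-tRNA synthetase; the read-out is not stated. Target: Histidine-tRNA ligase, Leishmania infantum (UniProt A4I591). Concentration: 30 µM. The record gives no direction; compounds that gave an IC50 in retests scored well above the rest, so higher reads as stronger inhibition. The assay is labelled LdHisRS but filed under L. infantum. Of about 69,000 compounds tested this way, about 410 (0.6%) reached 50% or more in at least one test.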
CoaBC: 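Coenzyme A biosynthesis protein CoaBC, Mycobacterium tuberculosis (UniProt P9WNZ1). Enzyme assay of CoaBC with a phosphate dye (Biomol Green) read at 650 nm. Concentration: 30 µM. Direction is inferred from only a few compounds that gave an IC50; most scored high, so higher reads as stronger inhibition. Most strong results did not repeat in a second test. Size under these conditions: about 67,000 compounds, about 40 of them at 50% or above in at least one test.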
MtTrpRS: 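Tryptophan-tRNA ligase, Mycobacterium tuberculosis (UniProt P9WFT3). Enzyme assay of tryptophanyl-tRNA synthetase; the read-out is not stated. Concentration: 10 µM. Higher most likely means stronger inhibition; the record gives no direction and few retests gave an IC50. Of about 65,000 compounds tested this way, about 64 (0.098%) reached 50% or more in at least one test.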

Protein sequences, listed by entry. Tags and fused reporters are not part of them. Residues count along the entry.
UniProt A4I591, 1-473: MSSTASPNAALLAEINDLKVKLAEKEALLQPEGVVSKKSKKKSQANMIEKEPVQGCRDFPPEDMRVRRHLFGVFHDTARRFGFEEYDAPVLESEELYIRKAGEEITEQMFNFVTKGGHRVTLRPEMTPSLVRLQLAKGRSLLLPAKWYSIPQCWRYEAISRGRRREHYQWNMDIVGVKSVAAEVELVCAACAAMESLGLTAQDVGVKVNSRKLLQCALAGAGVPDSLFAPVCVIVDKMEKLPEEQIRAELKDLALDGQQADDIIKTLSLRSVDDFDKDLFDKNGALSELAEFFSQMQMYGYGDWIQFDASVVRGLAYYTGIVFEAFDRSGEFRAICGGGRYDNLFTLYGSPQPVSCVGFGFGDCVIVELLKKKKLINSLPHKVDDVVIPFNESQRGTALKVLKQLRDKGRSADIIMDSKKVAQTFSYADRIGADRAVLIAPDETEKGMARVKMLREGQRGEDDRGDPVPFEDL
UniProt P9WNZ1, whole entry: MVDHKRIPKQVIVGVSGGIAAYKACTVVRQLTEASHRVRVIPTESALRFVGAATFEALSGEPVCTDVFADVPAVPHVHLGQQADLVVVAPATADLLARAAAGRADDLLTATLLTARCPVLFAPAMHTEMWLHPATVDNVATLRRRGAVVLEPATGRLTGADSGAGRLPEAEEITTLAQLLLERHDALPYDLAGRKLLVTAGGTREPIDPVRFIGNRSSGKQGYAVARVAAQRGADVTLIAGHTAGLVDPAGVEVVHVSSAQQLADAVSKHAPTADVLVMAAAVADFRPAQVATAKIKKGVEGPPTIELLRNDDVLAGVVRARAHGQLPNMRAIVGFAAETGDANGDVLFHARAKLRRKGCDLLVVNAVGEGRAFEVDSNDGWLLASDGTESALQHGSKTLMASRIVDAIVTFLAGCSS
UniProt P9WFT3, whole entry: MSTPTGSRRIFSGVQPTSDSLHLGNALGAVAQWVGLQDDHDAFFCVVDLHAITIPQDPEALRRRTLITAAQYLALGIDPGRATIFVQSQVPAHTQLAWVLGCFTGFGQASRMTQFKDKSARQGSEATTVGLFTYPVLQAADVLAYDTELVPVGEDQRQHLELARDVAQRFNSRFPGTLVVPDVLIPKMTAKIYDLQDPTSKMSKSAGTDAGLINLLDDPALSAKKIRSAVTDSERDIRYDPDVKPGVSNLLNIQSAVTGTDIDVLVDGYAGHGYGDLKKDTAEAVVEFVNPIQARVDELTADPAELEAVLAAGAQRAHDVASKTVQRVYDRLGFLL

Values are the deposited “Percent Effect”, in %. How 0% and 100% were set is not recorded. Most values in the screen are low, and negative values occur. Compounds were drawn at random from those tested, without regard to their results. A dash means the value is not listed here; it may have been measured.

| structure | LiHisRS | CoaBC | MtTrpRS |
|---|---|---|---|
| `N#Cc1ccccc1N1CCN(C(=O)NCCN2CCOCC2)CC1` | 11.11 | 6.746 | 1.215 |
| `CC(=O)Nc1cc(CCC2CCN(C(=O)c3ccccn3)CC2)ccn1` | 13.04 | 0.2628 | -7.878 |
| `CCc1nc2c(NCC3COc4c(cccc4OC)C3)ncnc2o1` (stereo not shown) | 10.75 | -6.79 | 10.16 |
| `CC(C)CCN1CCNC(=O)C1CC(=O)NCCc1cc(O)ncn1` (stereo not shown) | 12.9 | 8.193 | 1.583 |
| `c1ccc(Cn2cccn2)c(CN2CCCCC2CCn2ccnc2)c1` (stereo not shown) | 30.14 | -0.7335 | -2.981 |
| `COc1ccc(NC(=O)NCC(C)N2CCc3ccccc32)cc1` (stereo not shown) | 16.53 | 2.622 | -0.9382 |
| `N#Cc1cccc(CN2C[C@@H](F)[C@@H](OCc3nc4cnccc4[nH]3)C2)c1` | -5.405 | -2.161 | 0.839 |
| `Cc1n[nH]cc1CNC1CCN(c2ccccc2)CC1` | 17.02 | 2.233 | -0.8249 |
| `Cc1nn(C)c(C)c1C1CCCN1CCOc1ccccc1C#N` (stereo not shown) | 4.959 | -0.1248 | 0.000007 |
| `O=C(NC1CC1)[C@@H]1CCO[C@@H]2CCN(C3CCOCC3)C[C@@H]21` | -2.83 | 7.727 | -4.06 |
| `CC(NCc1cccnc1)c1ccc(OCC(=O)NC2CC2)cc1` (stereo not shown) | 0 | -5.222 | 0.6823 |
| `COc1ccc2cccc(CC(=O)NCc3n[nH]c(=O)[nH]3)c2c1` | 17.5 | - | 5.366 |
| `COc1cccc(OCC2CCCN(C(=O)c3cc(C)n[nH]3)C2)c1` (stereo not shown) | 14.4 | 0 | -3.762 |
| `CC(C)(C)C(CCO)NC(=O)Nc1ccccc1` (stereo not shown) | 16.33 | -1.837 | 1.317 |
| `Cc1nnc(C(C)N2CCN(Cc3noc(C(C)(C)C)n3)CC2)o1` (stereo not shown) | 8.889 | -4.136 | -1.235 |
| `Cc1ccccc1C(=O)N1CCOC(c2ncc(CN(C)C)[nH]2)C1` (stereo not shown) | 11.43 | 6.311 | -4.863 |
| `COc1ccc(-c2noc(CN3CC(n4cccn4)C3)n2)c(OC)c1` | 9.917 | 7.127 | -2.034 |
| `O=C(Cc1cccs1)N1C[C@@H]2OCCN(CC3CCCO3)[C@@H]2C1` (stereo partly shown) | 7.619 | -3.656 | -0.7401 |
| `COc1ccc(Cl)cc1C(=O)NC(CC(=O)O)c1cccs1` (stereo not shown) | 9.565 | 0.1272 | -4.217 |
| `COCC(=O)N1CCC(=O)N(C2CCCC2)Cc2ccccc21` | 10.2 | 3.39 | - |
| `CN1CCN(C(=O)NC2CCCC2)Cc2cccnc21` | 14.29 | 0.9772 | -2.929 |
| `Cc1cccc(NC(=O)CNC(=O)c2ccccc2F)c1` | -1.408 | - | -5.146 |
| `Cc1cnc(C(=O)N2CCCCC2c2[nH]ncc2S(C)(=O)=O)cn1` (stereo not shown) | 11.43 | -5.628 | 0.25 |
| `Clc1cccc(C2CCN(c3ncnc4c3CCNC4)C2)c1` (stereo not shown) | 20.41 | 8.266 | 9.216 |
| `CCc1nc(CN2CCCC(N(C)Cc3cnn(C)c3)C2)no1` (stereo not shown) | 3.846 | 10.02 | -2.495 |
| `Cc1cc(C)cc(OCCN2CCn3c(C)nnc3C2)c1` | 16.52 | -0.3817 | -1.022 |
| `CCc1c(C)nc2cc(C3CCN(CCc4ccccc4)C3)nn2c1O` (stereo not shown) | 9.375 | 2.941 | - |
| `Cc1cc(C)n(-c2ccc3nnc(C)n3n2)n1` | 3.297 | -10.14 | -1.232 |
| `Cc1cnccc1NCCNC(=O)[C@H]1CNC[C@H](C(=O)N2CCCC2)C1` | 7.447 | 0.1616 | 1.355 |
| `O=C(CCC1CCCCO1)NCc1cnn(-c2ccc(F)cc2F)c1` (stereo not shown) | -24.66 | -1.992 | 1.624 |
| `CCS(=O)(=O)NCC1OCCc2cn(CCOC)nc21` (stereo not shown) | 7.895 | 7.128 | 2.705 |
| `Cc1cc(C(=O)N2CCO[C@H]3[C@H](OCCN(C)C)CC[C@@H]32)c(C)[nH]1` | 25 | 17.78 | -9.891 |
| `Cc1nc(C2CCCN2CC(=O)N2CCc3ccccc32)no1` (stereo not shown) | 29.09 | 8.163 | 13.16 |
| `CC(C)Nc1ncc(CN2C[C@@H](CN3CCC(O)CC3)[C@@H](CO)C2)cn1` | 20.39 | -7.589 | 3.02 |
| `CCN1CCN(C(C)(C)CNc2nc(C)cc(C3CCC3)n2)CC1` | 13.92 | 1.648 | -3.883 |
| `CN1CCN(c2ccccc2NC(=O)NCCc2ccc(O)cc2)CC1` | 21.52 | 2.915 | 0.1792 |
| `CN(Cc1ccco1)[C@@H]1CN(C(=O)c2ccnnc2)C[C@@H]2CCCO[C@@H]21` | 5.714 | 9.247 | 4.523 |
| `CCCN(CC(=O)NC)C(=O)c1ccc(-c2nc(C)cs2)cc1` | 22.35 | 7.443 | -13.32 |
| `CC1c2cccn2CCN1C(=O)CCCc1nc(-c2ccco2)no1` (stereo not shown) | 10.75 | 0.5612 | -0.5833 |
| `CCN(CC)Cc1ccc(C(=O)NC2CCc3ccccc32)o1` (stereo not shown) | 16.67 | 4.878 | -0.8489 |
| `CN(C)C1COC2(CCN(C(=O)c3cccc(Cl)c3)CC2)C1` (stereo not shown) | 23.3 | 4.326 | -3.476 |
| `CCN(CC1CCOC1)C(=O)Nc1ccc(OC)nc1` (stereo not shown) | 10.64 | -1.295 | 4.38 |
| `CC(C)c1cc(C(=O)N2CCOC3(CCNCC3)C2)no1` | 21.37 | -0.4167 | -2.468 |
| `CC(C)N1CCCC(Cc2cncc(Br)c2)CC1` (stereo not shown) | 24.74 | 2.663 | - |
| `CC(C)N1CCC(N2CCN(C3CCC3)CC2CCO)CC1` (stereo not shown) | 10.58 | 1.688 | -4.171 |
| `c1ccc(-c2cnc(CN3CCn4c(nnc4C4CC4)C3)o2)cc1` | 24.8 | 5.851 | -4.403 |
| `COc1c(C2CCCN2CC(=O)Nc2cc(C)nn2C)c(C)nn1C` (stereo not shown) | 14.55 | 3.571 | -9.032 |
| `Cc1nc(O)c2nnn(C[C@H]3CCCN3C(=O)c3cccc(F)c3)c2n1` | 0 | 0 | 1.087 |
| `Cc1nc(C2CCCN2CC(=O)NCCc2ccsc2)no1` (stereo not shown) | 15.38 | 8.769 | 1.458 |
| `O=C1CCN(C(=O)NCCc2c[nH]c3ccc(Cl)cc23)CCN1` | 11.7 | 2.694 | 13.81 |
| `Cc1cc(CNC(=O)c2cc(COc3cncc(Cl)c3)on2)n[nH]1` | 20 | 5.372 | 10.88 |
| `COc1cccc(Nc2nc(-c3ccncc3)nc3c2CNCC3)c1` | -2.817 | 9.026 | 13.65 |
| `CCCn1ncc2c(C(=O)NC(C)Cn3cccn3)cc(C3CC3)nc21` (stereo not shown) | 10.75 | 2.806 | 1.583 |
| `CN(C)C(=O)COC[C@@H]1CC[C@H]2[C@H](CCN2c2ncccn2)O1` | 22.22 | 5.506 | 3.47 |
| `CCN(C(C)c1cccc(O)c1)S(=O)(=O)c1cccnc1` (stereo not shown) | 22.86 | - | -2.374 |
| `COc1ccc(CNC(=O)CNc2ccccc2OC)cc1` | 15.83 | - | 2.064 |

For reference, 5 entries once more:

Cc1nc(O)c2nnn(C[C@H]3CCCN3C(=O)c3cccc(F)c3)c2n1 read LiHisRS: 0%; CoaBC: 0%; MtTrpRS: 1.087%.
Clc1cccc(C2CCN(c3ncnc4c3CCNC4)C2)c1 (stereo not shown) read LiHisRS: 20.41%; CoaBC: 8.266%; MtTrpRS: 9.216%.
COc1ccc2cccc(CC(=O)NCc3n[nH]c(=O)[nH]3)c2c1 read LiHisRS: 17.5%; MtTrpRS: 5.366%.
CC(C)(C)C(CCO)NC(=O)Nc1ccccc1 (stereo not shown) read LiHisRS: 16.33%; CoaBC: -1.837%; MtTrpRS: 1.317%.
CCCn1ncc2c(C(=O)NC(C)Cn3cccn3)cc(C3CC3)nc21 (stereo not shown) read LiHisRS: 10.75%; CoaBC: 2.806%; MtTrpRS: 1.583%.

Source: ChEMBL document CHEMBL3988442, “University of Dundee, Small-Polar-MMV Screening Library” (2021).